Results: US20100113513A1, “QUINOLINE DERIVATIVES AS FUNGICIDES” (SYNGENTA CROP PROTECTION, INC., priority 2007, published 2010)
Some entries share one result that the patent states for a list of compounds. For at least one compound, name, drawing or mass did not settle the structure.

Assays:
Botrytis cinerea = Botrytis cinerea (grey mould) bean leaf disk test, preventive; format: in vivo; details: 200 ppm; bean leaf disks; assessed four days after inoculation
[1] = test system: Erysiphe graminis f.sp. tritici; assay: Erysiphe graminis f.sp. tritici (wheat powdery mildew) wheat leaf segment test, preventive; format: in vivo; details: 200 ppm; wheat leaf segments; assessed four days after inoculation
Septoria tritici = Septoria tritici (leaf blotch) growth inhibition in nutrient broth, photometric; format: cell-based; details: 200 ppm, 24 C, inhibition of growth after 72 hrs
Plasmopara viticola = Plasmopara viticola (downy mildew of grapevine) grapevine leaf disk test, preventive; format: in vivo; details: 200 ppm; grapevine leaf disks; assessed seven days after inoculation

CCOC(Oc1ccc2ncc(Br)cc2c1)C(=O)NC(C)(C)COC (racemic) [6 (161)]
≥ 60%: control of fungal infection, Botrytis cinerea (Botrytis cinerea) | control of fungal infection, Erysiphe graminis f.sp. tritici [1] | control of fungal infection, Septoria tritici (Septoria tritici) | control of fungal infection, Plasmopara viticola (Plasmopara viticola)

CCC(Oc1cc(C)c2ncc(Br)cc2c1)C(=O)NC(C)(C)C (racemic) [46 (161)]
≥ 60%: control of fungal infection, Botrytis cinerea (Botrytis cinerea) | control of fungal infection, Erysiphe graminis f.sp. tritici [1]

CCC(Oc1cc(C)c2ncc(I)cc2c1)C(=O)NC(C)(C)C (racemic) [73 (161)]
≥ 60%: control of fungal infection, Botrytis cinerea (Botrytis cinerea) | control of fungal infection, Erysiphe graminis f.sp. tritici [1] | control of fungal infection, Septoria tritici (Septoria tritici)

CCC(Oc1ccc2ncc(I)cc2c1)C(=O)NCCC1OCCO1 (racemic) [185 (162)]
≥ 60%: control of fungal infection, Botrytis cinerea (Botrytis cinerea) | control of fungal infection, Erysiphe graminis f.sp. tritici [1]

COC(Oc1cc(Br)c2ncc(Br)cc2c1)C(=O)NC(C)(C)C (stereo not drawn) [5 (161)]
≥ 60%: control of fungal infection, Botrytis cinerea (Botrytis cinerea) | control of fungal infection, Erysiphe graminis f.sp. tritici [1] | control of fungal infection, Septoria tritici (Septoria tritici) | control of fungal infection, Plasmopara viticola (Plasmopara viticola)

CCC(Oc1cc(C)c2ncc(Br)cc2c1)C(=O)NC(C)(C#N)COC (stereo not drawn) [47 (161)]
≥ 60%: control of fungal infection, Botrytis cinerea (Botrytis cinerea) | control of fungal infection, Erysiphe graminis f.sp. tritici [1] | control of fungal infection, Septoria tritici (Septoria tritici)

CCC(Oc1ccc2ncc(I)cc2c1)C(=O)NC(C)(C)C (stereo not drawn) [48 (161)]
≥ 60%: control of fungal infection, Botrytis cinerea (Botrytis cinerea) | control of fungal infection, Erysiphe graminis f.sp. tritici [1] | control of fungal infection, Septoria tritici (Septoria tritici)

CCC(Oc1ccc2ncc(I)cc2c1)C(=O)NC(C)(C#N)COC (stereo not drawn) [49 (161)]
≥ 60%: control of fungal infection, Botrytis cinerea (Botrytis cinerea) | control of fungal infection, Erysiphe graminis f.sp. tritici [1] | control of fungal infection, Septoria tritici (Septoria tritici)

CCC(Oc1cc(C)c2ncc(Br)cc2c1)C(=O)NC(C)(C)COC (stereo not drawn) [51 (161)]
≥ 60%: control of fungal infection, Botrytis cinerea (Botrytis cinerea) | control of fungal infection, Erysiphe graminis f.sp. tritici [1] | control of fungal infection, Septoria tritici (Septoria tritici)

CCC(Oc1cc(Cl)c2ncc(Br)cc2c1)C(=O)NC(C)(C#N)COC (stereo not drawn) [56 (161)]
≥ 60%: control of fungal infection, Botrytis cinerea (Botrytis cinerea) | control of fungal infection, Erysiphe graminis f.sp. tritici [1] | control of fungal infection, Septoria tritici (Septoria tritici)

Cc1cc(OC(C)C(=O)NC(C)(C)C)cc2cc(Br)cnc12 (stereo not drawn) [57 (161)]
≥ 60%: control of fungal infection, Botrytis cinerea (Botrytis cinerea) | control of fungal infection, Erysiphe graminis f.sp. tritici [1] | control of fungal infection, Septoria tritici (Septoria tritici)

COCC(C)(C#N)NC(=O)C(C)Oc1cc(C)c2ncc(Br)cc2c1 (stereo not drawn) [60 (161)]
≥ 60%: control of fungal infection, Botrytis cinerea (Botrytis cinerea) | control of fungal infection, Erysiphe graminis f.sp. tritici [1] | control of fungal infection, Septoria tritici (Septoria tritici)
